Data from patent publication US20080280308A1.
No constants are given. Whether binding was seen depends on the method and setting. Some entries that bind do so weakly or less than the wild type.

Protein sequences, listed by entry. Tags and fused reporters are not part of them.
UniProt P02699: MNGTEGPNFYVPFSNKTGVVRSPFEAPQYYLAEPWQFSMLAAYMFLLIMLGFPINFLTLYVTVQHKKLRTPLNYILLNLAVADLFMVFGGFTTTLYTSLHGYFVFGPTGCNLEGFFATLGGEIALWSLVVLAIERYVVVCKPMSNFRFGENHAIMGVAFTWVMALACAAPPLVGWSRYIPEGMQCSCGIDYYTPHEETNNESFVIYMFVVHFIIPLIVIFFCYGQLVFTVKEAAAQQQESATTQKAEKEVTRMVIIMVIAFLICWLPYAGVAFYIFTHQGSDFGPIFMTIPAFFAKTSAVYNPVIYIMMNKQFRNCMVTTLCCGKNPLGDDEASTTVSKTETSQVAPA

Target: T1, human thrombin receptor (PAR1) (human) (UniProt P25116)
T1 sequence (looked up): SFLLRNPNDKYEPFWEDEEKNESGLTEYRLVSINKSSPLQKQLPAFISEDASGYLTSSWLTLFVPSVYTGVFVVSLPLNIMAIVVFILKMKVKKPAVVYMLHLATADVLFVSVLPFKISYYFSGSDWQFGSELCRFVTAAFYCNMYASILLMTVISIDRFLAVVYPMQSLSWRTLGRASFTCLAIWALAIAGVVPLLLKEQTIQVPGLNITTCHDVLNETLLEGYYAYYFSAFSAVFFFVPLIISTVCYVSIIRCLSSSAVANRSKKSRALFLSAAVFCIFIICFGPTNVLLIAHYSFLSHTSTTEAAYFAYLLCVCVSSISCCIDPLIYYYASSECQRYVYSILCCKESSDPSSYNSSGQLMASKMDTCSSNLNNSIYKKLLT
Assay: panning, LacI-displayed Gq library, CHO PAR1 membranes

binding, binds:
CSLKLKAYNLV [C5-12 …]
LQMNHNEYNLV [C4-16 …]
PQLNLNAYNLV [C7-3 …]
QRLNVGEYNLV [C7-10 …]
LHLNLKEYNLV [C7-13 …]
LQQKLKEYSLV [C7-14 …]

Target: T1, human thrombin receptor (PAR1) (human)
Assay: panning, Gt library, CHO PAR1

binding, binds:
FWGNLQDSGLF
RRGNGKDCRHF
IREFLTDCGLF
IRLDLKDVSLF
ICERLNDCGLC
PRDNTKVRGLF

Target: T1, human thrombin receptor (PAR1) (human)
Assay: panning, G11 library, CHO EXPRESSED PAR1

binding, binds:
CSLKLKAYNLV [C5-12 …]
LQMNHNEYNLV [C4-16 …]
PQLNLNAYNLV [C7-3 …]
QRLNVGEYNLV [C7-10 …]
LHLNLKEYNLV [C7-13 …]
LQQKLKEYSLV [C7-14 …]

Target: T1, human thrombin receptor (PAR1) (human)
Assay: panning, G12 library, CHO PAR1

binding, binds:
LQETMKDQSLQ
PQVNLKSIMRQ
WQHKLSEVMLQ
LKEHLMERMLQ
LLGMLEPLMEQ
LQENLKEMMLQ
LEENLKYRMLD
LQEDLKGMTLQ

Target: light-activated rhodopsin (bovine) (UniProt P02699)
Assay: panning, LacI-displayed Gt library

binding, binds:
IQGVLKDCGLL [light-activated rhodopsin clone 9 …]
ICENLKECGLF [light-activated rhodopsin clone 10 …]

Target: T1, human thrombin receptor (PAR1) (human)
Assay: panning, G13 library, CHO PAR1

binding, binds:
LIVKVKQLIWQ
MRAKLNNLMLE
LQDNLRHLIQ
LQDNRNQLLF
LQDNLRHLMLQ
LQDKINHLMLQ
LQANRKLGMLQ
